The values below come from patent US20190284613.

The data set deals with Vibhar transposase. As to the kind of experiment: activity assay. The following applies: purified recombinant protein.

Construct, isoform or probe ends are uncertain for at least one entry.

For the sequence “CTGTCTCTTGATCACAAGT (double strand) [adapter 1 (parental, C:G at position 1)]”, the “activity on this sequence” value (tagmentation of E. coli DNA, 5 mM MnCl2, Bicine pH 7.5, 46 or 56 C, reference adapter) is “active”.

For “GCTGACGTCGAGACTTGTGATCAAGAGACAG / CTGTCTCTTGATCACAAGTT [adapter pair 4 (3i0*dT)]”, the “activity on this sequence” value (3' inverted dT preceded by PS bond on bottom strand, comparable fragment yield to pair 1, with or without SPRI, variant of adapter pair 1 (3i1b/3i0)) is “active”.

Consider “GCTGACGTCGAGACTTGTGATCAAGAGACAG / CTGTCTCTTGATCACAAGT [adapter pair 1 (3i1b/3i0)]”, for which the “activity on this sequence” value (tagmentation of human DNA, products seen after SPRI purification) is “active”.
